# Test results from PubChem BioAssay AID2685 (National Center for Advancing Translational Sciences (NCATS), 2010).
# In all, about 320,000 compounds went through this assay and about 2,100 (0.66%) were called active. Inconclusive means that the source gave no clear call. Such entries were picked first, then a sample of the others. The call rests on the fitted dose curve; in most records, active means well fitted inhibition curve with a large enough effect in the signal ratio, with a control signal flat (not every such curve was filed as active); inconclusive means small, poorly fitted or top-dose-only effect, or effect the other way, or a change in a side signal; inactive means flat fitted curve, though single readings scatter; the % refers to the signal ratio. A potency beside an inconclusive call is a rough fit, not a confirmed value.
# Assay: qHTS Assay for Lipid Storage Modulators in Drosophila S3 Cells
# Conditions: BODIPY lipid droplet fluorescence, 18-24 h, cells fed with added oleic acid; lipid storage change, negative = inhibition: at 46.1 µM (top of the series) unless noted
# Summary of the method: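 Drosophila S3 cells loaded with oleic acid (400 uM, as added) and compounds at several concentrations; lipid droplets imaged by 488-nm laser-scanning cytometry, 500–530 nm intensity and object ratio to cell channel. Percent activity normalized to 20 uM Triacsin C.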
# On the % scale 0 is the no-effect control and ±100 the full control effect; potency means the concentration at half of the fitted maximal effect.
SMILES,Potency,"lipid storage change, negative = inhibition"
C#CCOCCOCCOCCNc1nc(N2CCN(C(=O)[C@H](CCCCN)n3cc(CCC(=O)O)nn3)CC2)nc(N2CCN(C(=O)[C@H](CCCCN)n3cc(CC(C)O)nn3)CC2)n1 (stereo not given in full),"inconclusive: 29.1 µM [activator, single point]",
CCC1CCCCN1CCCNC(=O)CNC(=O)c1nn(-c2ccc(OC)cc2)c(=O)c2ccccc12 (stereo not given),"inconclusive: 6.51 µM [falling, partial curve, poor fit]",
COCCNC(=O)CSc1nc2nn(-c3ccccc3)c(=O)c-2c2n1CCCCC2,,inconclusive: 38.1%
COCCCNC(=O)C(C)N1c2cccc3cccc(c23)S1(=O)=O (stereo not given),"inconclusive: 5.8 µM [activator, full curve]",
Cc1ccc(C2Nc3cccc4cccc(c34)N2)cc1,"inconclusive: 16.4 µM [activator, partial curve]",
Cc1cc(CC(C)C)n(-c2nc3ccccc3c(=O)n2OCC(=O)N(C)C)n1,,inconclusive: 2.67%
CCc1ccccc1NC(=O)C1CCCN1S(=O)(=O)c1ccc(-c2ccc(=O)[nH]n2)s1 (stereo not given),"inconclusive: 1.84 µM [activator, partial curve]",
CC(C)[C@H](NC(=O)NCc1ccc(Cl)cc1)C(=O)O,,inactive
Nc1nnc(CC(=O)N/N=C/c2ccc(-c3ccc(Cl)cc3Cl)o2)s1,,inconclusive: 16.2%
O=C1C(=O)N(c2ccc(O)cc2)C(c2ccccc2[N+](=O)[O-])/C1=C(\O)c1ccccc1 (stereo not given),,inconclusive: -26.4%
C=CCn1c(=NC(=O)c2ccccc2[N+](=O)[O-])sc2cc(S(C)(=O)=O)ccc21,,inconclusive: -2.17%
CC1CCN(C(=O)c2[nH]cnc2C(=O)N[C@@H](Cc2ccccc2)C(=O)OC(C)(C)C)CC1,,inconclusive: 28.8%
Cc1ccc(CCNC(=O)C2CCCN(S(=O)(=O)c3cccc4nsnc34)C2)cc1 (stereo not given),,inconclusive: 1.57%
CC1CCN(S(=O)(=O)c2ccc3c(ccn3CC(=O)O)c2)CC1,,inconclusive: -25.5%
Clc1ccc(/C=N/NC(=Nc2ccccc2)c2ccccn2)c(Cl)c1,,inconclusive: -22.6%
C=CCn1c(=N)n(CC(=O)c2ccc(Cl)cc2)c2ccccc21,"inconclusive: 29.1 µM [activator, single point]",
CC(C)(C)c1ccc(-n2nc(C#N)c(Cl)cc2=O)cc1,,inconclusive: -96.7%
COc1ccc(NC(=O)C(=O)NCCN2CCN(C(=O)c3cccc(Br)c3)CC2)cc1,,inconclusive: 15.6%
N#Cc1ccsc1NC(=O)C1CC(=O)N(Cc2ccccc2)C1 (stereo not given),,inconclusive: 34.1%
CC(OC(=O)C1=NNC(=O)CC1)C(=O)Nc1ncc(Cl)cc1Cl (stereo not given),,inconclusive: 5.32%
Cc1ccc(SCCN)cc1C,,inconclusive: 2.32%
Cc1ccc(-c2nc(CS(=O)CC(=O)NCCN(CC(C)C)CC(C)C)c(C)o2)cc1 (stereo not given),"inconclusive: 29.1 µM [falling, single point]",
O=C(O)C1CCCCC1C(=O)NCCc1ccccc1 (stereo not given),,inconclusive: -5.77%
Cc1nc(=O)c(-c2ccccc2)c(C)n1-c1ccccc1,"inconclusive: 6.51 µM [falling, single point]",
CC(C)(C)c1cc(CN2CCC(O)CC2)cc(C(C)(C)C)c1O,,inactive

SMILES,Potency,"lipid storage change, negative = inhibition"
CCOC(CNC(=O)Cc1c(C)nc2c(-c3ccccc3)c(C)nn2c1C)OCC,,inconclusive: 5.61%
COc1ccc(S(=O)(=O)NCCSCc2ccco2)cc1,"inconclusive: 6.51 µM [falling, single point]",
O=C(c1ccc2ccccc2c1)N1CCCCC1,"inconclusive: 29.1 µM [falling, single point]",
CCOc1ccc(OCCn2ccnc2)cc1,,inconclusive: -18.3%
CCN(Cc1nc2ccccc2c(=O)[nH]1)Cc1cc(=O)oc2cc(OC)ccc12,,inconclusive: 147%
COC(=O)CN1C(=O)N/C(=C/c2ccccc2OC)C1=O,,inconclusive: 15.2%
CN(C)c1ccc(CNS(=O)(=O)c2csc(C(N)=O)c2)cc1,"inconclusive: 29.1 µM [falling, single point]",
COc1ccc(NS(=O)(=O)c2cc3c(cc2C)N(C)CCO3)cc1,,inconclusive: -3.38%
CSc1ncc(C(=O)Nc2cccc(Cl)c2)c(C)n1,,inconclusive: -20.4%
COc1ccc(Cl)cc1NC(=S)NNC(=O)c1cccnc1,,inconclusive: -4.03%
COc1ccccc1N(CC(=O)NC1CCCCC1)S(=O)(=O)c1ccccc1,,inconclusive: 31.6%
CCCn1c(C(C)NS(=O)(=O)c2ccccc2)n[nH]c1=S (stereo not given),,inconclusive: 268%
CCOc1cc(C)c(Cl)cc1S(=O)(=O)N(CC)CC,"inconclusive: 16.4 µM [activator, partial curve]",
CC12CCC(=O)N1C(C(=O)NNC(=O)c1cccc(Cl)c1)CS2 (stereo not given),,inconclusive
CC(=O)OC(/C(O)=C(\C#N)c1nc2ccccc2[nH]1)c1ccccc1 (stereo not given),,inconclusive: 43.2%
CCc1ccc(Cn2nnc(C(=O)NCc3ccccc3OC)c2N)cc1,,inconclusive: 4.3% [at 9.22 µM]
CCOC(=O)C(=O)NC(C)CCc1ccccc1 (stereo not given),,inactive
CCCCC(=O)Nc1ccc(C(=O)NCCc2ccccc2)cc1,"inconclusive: 0.651 µM [activator, full curve, poor fit]",
CN(CC(=O)Nc1cccc(F)c1)C(=O)Cn1cnc2c1c(=O)n(C)c(=O)n2C,,inconclusive: 9.33%
COc1cccc(NC(=O)NC2CCN(CC(=O)Nc3ccccc3[N+](=O)[O-])CC2)c1,"inconclusive: 29.1 µM [falling, partial curve, poor fit]",
CCCCn1c(N)c(N(CC)C(=O)c2ccco2)c(=O)[nH]c1=O,,inconclusive: -28.5%
N/C(=N\OC(=O)/C=C/c1ccccc1Cl)c1ccccn1,,inconclusive: 8.16%
COc1ccc(C2=NS(=O)(=O)N(C)C(C(=O)NCc3ccccn3)=C2)cc1,,inconclusive: 27.8%
O=C(Cc1ccc(S(=O)(=O)N2CCOCC2)s1)N1CCN(S(=O)(=O)c2cccc([N+](=O)[O-])c2)CC1,,inconclusive: 14.2%
CCOC(=O)c1c(CN2CCCCC2C)oc2ccc(OC)cc12 (stereo not given),"inconclusive: 2.59 µM [activator, partial curve]",

# Retrieved by compound from above:
SMILES,Potency,"lipid storage change, negative = inhibition"
COc1ccc(S(=O)(=O)NCCSCc2ccco2)cc1,"inconclusive: 6.51 µM [falling, single point]",
CC(C)[C@H](NC(=O)NCc1ccc(Cl)cc1)C(=O)O,,inactive
CC1CCN(S(=O)(=O)c2ccc3c(ccn3CC(=O)O)c2)CC1,,inconclusive: -25.5%
Nc1nnc(CC(=O)N/N=C/c2ccc(-c3ccc(Cl)cc3Cl)o2)s1,,inconclusive: 16.2%
CN(CC(=O)Nc1cccc(F)c1)C(=O)Cn1cnc2c1c(=O)n(C)c(=O)n2C,,inconclusive: 9.33%

# Following part.

SMILES,Potency,"lipid storage change, negative = inhibition"
Cc1ccc(NC(=S)N(CCCN2CCOCC2)Cc2ccccn2)cc1Cl,"inconclusive: 29.1 µM [rising, single point]",
COc1cc(NC(=S)N2CCN(S(C)(=O)=O)CC2)cc(OC)c1,,inconclusive: 105%
O=C(NNC(=O)C1[C@H]2CCCC[C@@H]12)NC1CCCCC1 (stereo not given in full),"inconclusive: 2.31 µM [activator, partial curve, poor fit]",
CCOc1cccc(C(=O)Nc2ccccc2N2CCN(C(=O)C(C)C)CC2)c1,"inconclusive: 0.0052 µM [activator, full curve, poor fit]",
COc1cc(NC(=S)NC(=O)c2ccccc2F)ccc1NC(=O)c1ccco1,"inconclusive: 0.146 µM [activator, full curve, poor fit]",
CCN1C(=O)/C(=C/c2cnn(C)c2C)SC1=S,"inconclusive: 0.116 µM [activator, full curve, poor fit]",
CC(C)(C)C(=O)CC(=O)Nc1ccc(Cl)c(N)c1,,inconclusive: 21%
Cc1cc(=O)oc(C)c1C(=O)N1CCN(C)CC1,"inconclusive: 1.16 µM [falling, full curve]",
COC(=O)c1cc(COc2ccc3ccc(=O)oc3c2)c(C)o1,,inconclusive: 2.16%
O=[N+]([O-])c1ccc(N2CCCCCC2)c(S(=O)(=O)N2CCCCC2)c1,,inconclusive: -36.5%
COc1ccc(-c2ccc(/C=C3/C(=N)N4C=CSC4=NC3=O)o2)c([N+](=O)[O-])c1,,inconclusive: -100%
CCOC(=O)c1ccc2[nH]c3ccccc3c2c1,,inconclusive: -11.9%
COc1ccccc1OCCOc1ccc(C(=O)c2ccccc2)cc1,,inconclusive: 11%
COc1ccc(NC(=O)Nc2ccc(N(C)C)cc2)cc1,"inconclusive: 23.1 µM [activator, single point]",
CCc1cccc2c(C(=O)CN3C(=O)C(=O)N(C4CCCC4)C3=O)c[nH]c12,"inconclusive: 1.03 µM [falling, full curve]",
CN1CCN(c2ccc(S(=O)(=O)N3CCCCC3)cc2NC(=O)Cc2ccccc2F)CC1,,inconclusive: -1.23%
Cc1nc(=O)c(-c2ccccc2)c(C)n1-c1cccc(C(=O)O)c1,"inconclusive: 0.146 µM [falling, full curve]",
O=C(CCc1nc2cccnc2n1Cc1ccccc1)NCCc1ccc(Cl)cc1,"inconclusive: 5.17 µM [activator, partial curve]",
COc1ccc(CC(=O)Nc2ccc3nc(C)sc3c2)cc1OC,,inconclusive: 24.1%
Cc1cc(C)cc(NC(=O)CN2CCN(C(=O)C3CCCO3)CC2)c1 (stereo not given),,inconclusive: -7.28%
O=C(Nc1cccc(F)c1)c1ccc(-c2ccccc2Cl)o1,,inconclusive: 40.3%
CCCS(=O)(=O)N1CCC(C(=O)NCCCN(C)Cc2ccccc2)CC1,,inconclusive: 5.54%
O=C(c1ccco1)N1CCN(C(=O)c2cc(=O)[nH]c3ccccc23)CC1,,inconclusive: 6.93%
Cc1ccc(C)c2[nH]c(=O)c(CN(CC3CCCO3)C(=O)NC3CCCCC3)cc12 (stereo not given),,inconclusive: 86.5%
Cc1ccc(-c2nc(SCC(=O)Nc3cc(C)on3)c3c(=O)n(C)c(=O)n(C)c3n2)cc1,"inconclusive: 1.3 µM [falling, full curve, poor fit]",

# Sorted by formula weight (low to high): part of the list above
SMILES,Potency,"lipid storage change, negative = inhibition"
COc1ccc(Cl)cc1NC(=S)NNC(=O)c1cccnc1,,inconclusive: -4.03%
COc1cc(NC(=S)N2CCN(S(C)(=O)=O)CC2)cc(OC)c1,,inconclusive: 105%
Cc1ccc(-c2nc(SCC(=O)Nc3cc(C)on3)c3c(=O)n(C)c(=O)n(C)c3n2)cc1,"inconclusive: 1.3 µM [falling, full curve, poor fit]",
